Measurements from patent publication US20260234295A1, “ULTRALOW MOLECULAR WEIGHT HEPARIN” (The University of North Carolina at Chapel Hill, priority 2022, published 2026).
Entries after “also recorded” stand apart in the source; their conditions may differ. For at least one compound, name, drawing or mass did not settle the structure.

What was measured:
[1] = test system: T1, bovine FXa; test: ACTICHROME heparin activity assay, FXa inhibition with human antithrombin; assay type: biochemical; details: FIG. 6
T1 construct: purchased BioMedica Diagnostics
Method: Data shown as mean standard deviation. Briefly, varying concentrations of HR 7-mer, enoxaparin, and fondaparinux were prepared in phosphate-buffered saline (PBS). A total of 5 microliters (μL) of each sample was added to each well, followed by the addition of 40 μL of human antithrombin for 2 minutes (min) at 37 degrees Celsius (° C.). A total of 40 μL of bovine FXa stock solution was then added and incubated for 1 min at 37° C., followed by the addition of 40 μL of chromogenic substrate sold under the tradename SPECTROZYME® FXa (BioMedica Diagnostics, Windsor, Canada). After a 5 min incubation period at 37° C., the reaction was terminated by the addition of 40 μL of glacial acetic acid. Absorbance was measured at 405 nanometers (nm) and results presented as percent inhibition of FXa activity.

[2] = test system: T2, Human FXa (Homo sapiens); test: Anti-FXa activity, chromogenic substrate S-2765 with antithrombin; assay type: biochemical; details: after heparanase digestion; digested byproduct
T2 construct: Human FXa (Enzyme Research Laboratories, South Bend, Indiana, United States of America); purchased Enzyme Research Laboratories
Method: Human FXa (Enzyme Research Laboratories, South Bend, Indiana, United States of America) was diluted in phosphate buffered saline (PBS) to 50 U/mL. Antithrombin was diluted to 0.03 mg/mL in PBS with 1 mg/mL of bovine serum albumin (BSA). The chromogenic substrate, S-2765 (Diapharma, Westchester, Ohio, United States of America) was diluted to 1 mg/mL in water. Heparin oligosaccharides were dissolved in PBS at various concentrations (7 to 3600 ng/mL). A reaction mixture including 60 μL of antithrombin and 24 μL of a solution containing a heparin oligosaccharide was incubated at room temperature for 3 min. FXa (100 μL) was then added, which was followed after a 2 min incubation at room temperature by the addition of 30 μL of chromogenic substrate, S-2765. The absorbance of the mixture was measured at 405 nm for 5 min and plotted against reaction time. The initial reaction rate as a function of oligosaccharide concentration was used to calculate IC50.

O=C(O)C1OC(OC2C(COS(=O)(=O)O)OC(OC3C(C(=O)O)OC(OC4C(COS(=O)(=O)O)OC(OC5C(C(=O)O)OC(OC6C(COS(=O)(=O)O)OC(OC7C(C(=O)O)OC(Oc8ccc([N+](=O)[O-])cc8)C(O)C7O)C(NS(=O)(=O)O)C6O)C(OS(=O)(=O)O)C5O)C(NS(=O)(=O)O)C4OS(=O)(=O)O)C(OS(=O)(=O)O)C3O)C(NS(=O)(=O)O)C2O)C(O)C(O)C1O (centres unmarked) [HR 7-mer]
anti-FXa activity on a weight basis relative to enoxaparin [1]: three-fold lower
anti-FXa activity after incubation with heparanase [2]: largely preserved; also recorded: unaffected
